# Among all 53,000 sequences or so, about 3,700 (7%) were called active.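 Rule for the calls: active = gene knockdowns whose robust z-score for IL-1 alpha signal is at least 2 or at most -2, so actives lie on both sides; inactive = the rest.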 Some of the results follow.
# Experiment: Components of the Cytosolic LPS Sensing Pathway: Gene Identification via Genome-wide siRNA Screen;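 note: robust z of the log signal after scaling to non-targeting control siRNA wells of the plate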
# Details: RAW264.7 macrophages, IL-1a HTRF, actives lie on both sides, screened at 100 nM (by protocol), cells primed 5 h with Pam3CSK4 first
# Method in brief: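 Cells (RAW264.7, 1×10^4 per well) were transfected with siRNA at 100 nM and cultured 48h at 37 degrees C. Pam3CSK4 was added for 5 hours; LipidA transfection followed for 24 hour. IL-1a was then measured by HTRF.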
row,Sequence,z-score
1,GGAAAAUAAGCUAAGGAAGTT against Peg12,inactive: -0.018
2,GCGACCUUAGACAUUUGCATT against Prkrip1,inactive: -0.652
3,GGAUGGACAUCCAAGCAGGTT against Fabp9,inactive: -1.97
4,GGAUCGUCUCCAAGUGGAUTT against Rhbdl2,inactive: -0.502
5,GGCUGGUCAAAAUUUGGAATT against Cdca2,inactive: -0.9
6,GCAUCCACCUCAACGAUAUTT against Dlg3,inactive: -1.33
7,GGUCUGAUACCUCAUUCCATT against Il22ra2,inactive: -1.21
8,GGAGAGGUGGUAUUGUUGGTT against Olfr1297,inactive: 0.29
9,CCCUGACAAUCUUUAUUUCTT against Olfr883,inactive: -0.784
10,GCCUUUGCACAGUUUGGACTT against BC002059,inactive: -1.13
11,CGUGUUCAGCGUAGAAACUTT against Ttll1,inactive: 0.283
12,CGAAAAAGACAGGCUUGGATT against Dapl1,inactive: 0.21
13,CGAAUGCUUGGAGAACAAUTT against Scube2,inactive: 0.992
14,GCACCAAACCAAUAUUAGUTT against Epb41l3,inactive: 1.13
15,CCCAUACUGUCACUUUAAGTT against H2bc8,active: -2.23
16,GGAGAUGACAGAUGACCUUTT against Glyat,inactive: -0.124
17,GCUCUGAUGUCAACCUUCCTT against Fam174c,active: -2.23
18,GGGAGGAACUUUGUAUAAUTT against Prl3a1,inactive: 0.217
19,GGUCUCAAAUCACUAGAGUTT against Lum,inactive: 0.32
20,GGAGCGUGUGGAAGAAAAATT against Nedd8,inactive: -0.0924
21,GGGAGUUAAACUUCUCUGCTT against Tlr13,inactive: -0.0637
22,GGAAAACUAGUGUUGCUAUTT against Ptbp2,inactive: 0.865
23,GGUAGUUGGGACGAUCAUATT against 3110070M22Rik,inactive: 0.00845

row,Sequence,z-score
1,CCGGAGUCAGUAUCCAGAATT against Ndufaf4,inactive: -0.282
2,GCUUUCUGAAGUAGCAAAGTT against Nit2,inactive: 0.42
3,GGACGACCAUGAACUUCCCTT against Rmdn2,inactive: -0.111
4,GCAUAUGAUGGUCCUUACCTT against Cox6b1,inactive: 0.019
5,GCUGCACCAUGAAUGAGUCTT against Il4,inactive: 0.819
6,CCACUCACCCAGAUAGGUATT against AI413582,inactive: 0.489
7,GCUACGUGAAGCUAUAAACTT against 4930447C04Rik,inactive: 0.897
8,GGAAAAACUGCUAGAUCUATT against As3mt,inactive: 1.49
9,CCAUAGAACCGUCCUAAUUTT against Tbx3,inactive: -1.08
10,GCACCCGAACAUCAUUGCGTT against Map3k9,inactive: 1.6
11,GGAUCAGGCCCAACUUUAATT against Glra1,inactive: -1.26
12,GCCAGUGCUGGUUUGAAAUTT against Clip4,inactive: 1.67
13,GGAUGUCUGACUCAGGUCUTT against Olfr829,inactive: 0.0622
14,GGAUCUUCCCGUGAACAUCTT against Cndp1,inactive: -0.575
15,GCAGACAGCUUCUCACUAUTT against Tmem114,inactive: -0.431
16,GCGAGUGUUUCUCUUGGGATT against Trpm5,inactive: -0.303
17,GGAGAUGAAGUGGACAGACTT against Anapc13,inactive: 1.02
18,GGUGCCUAAUGGAUAAGAATT against Med13l,inactive: -0.784
19,GGAAUUUUACACUUUACCUTT against Klhl11,inactive: 1.74
20,CCGCUUGUAUUCGACUUAUTT against Gm11487,inactive: -0.418
21,GGCCUCCAUAUCUAUCUAUTT against Wdr38,inactive: 0.308
22,GGUCUGGAUCUUGUGACCUTT against Tcstv1,inactive: -0.592
23,GGAGGAGAUAAAAUUUAACTT against Ift81,inactive: 0.657

# Quoted at random: 4 records from the list, in no set order.
row,Sequence,z-score
20,CCGCUUGUAUUCGACUUAUTT against Gm11487,inactive: -0.418
12,GCCAGUGCUGGUUUGAAAUTT against Clip4,inactive: 1.67
13,GGAUGUCUGACUCAGGUCUTT against Olfr829,inactive: 0.0622
15,GCAGACAGCUUCUCACUAUTT against Tmem114,inactive: -0.431

# (cont.)

row,Sequence,z-score
1,GGUAUAUUCGGAAACCUAUTT against Abi1,inactive: -0.243
2,CCUUCAUGUGCAAGGUUGUTT against Ccr9,inactive: 0.801
3,GGAAGAAAAGUCUCAGAAATT against Swt1,inactive: -0.312
4,GCUACUGCACAAAGUUACGTT against Ankrd36,inactive: -0.0351
5,GCUAUUCUGGUGUCAAGACTT against Gbp2b,inactive: -0.548
6,CCUCCAAUCAGAAAGGUCGTT against Cmtr1,inactive: -0.651
7,GCUUUCUUUAUAUUGACUGTT against Olfr692,inactive: 0.0698
8,GGGUGUGACCGAAGCUCAUTT against Gatd3a,inactive: -0.581
9,GCUUCUAUUUUGGAUGAUGTT against Skint10,inactive: -1.2
10,GGCAUGGACCAAAUAAAUATT against Snap23,inactive: -0.562
11,GGUGUCACAUUCUUUUUUUTT against Pcolce2,inactive: 0.98
12,GCGAGUUGAUGAGCUCUAGTT against Sult1b1,inactive: 0.702
13,GCAUUGUUUUUCUAUUCAGTT against Cfhr1,inactive: 0.531
14,GGCGAAUGCAUAAACUAAATT against Abat,inactive: 0.744
15,CGACCUGACCUUUUUUUCCTT against Ipmk,inactive: -0.465
16,GCAAGUCGUAAGCCUCAGGTT against Mrps10,inactive: 0.533
17,GCCGGAAUGAAUACAUGCGTT against Elk1,inactive: -1.54
18,GGAUCAAGUCCAAUCUAAATT against Cdh5,inactive: -0.193
19,GGCACUCAGCAAGAUUGUATT against Nr2c2ap,inactive: -0.28
20,CGACAUAGCAAUCACAUGATT against Lmo2,inactive: -0.125
21,GGCCAAUCCACGAAAGCAUTT against Strip1,inactive: -0.958
22,GGAAGAACAGGAAGAAGUGTT against Pank1,inactive: 1.02

# — PubChem BioAssay AID1508600 (Functional Genomics Laboratory (NCATS/FGL), 2020)
